# Primary screen of a compound library

Amino acid sequences for entries named in this document (tags omitted).
UniProt E9BF75, entry or part of it: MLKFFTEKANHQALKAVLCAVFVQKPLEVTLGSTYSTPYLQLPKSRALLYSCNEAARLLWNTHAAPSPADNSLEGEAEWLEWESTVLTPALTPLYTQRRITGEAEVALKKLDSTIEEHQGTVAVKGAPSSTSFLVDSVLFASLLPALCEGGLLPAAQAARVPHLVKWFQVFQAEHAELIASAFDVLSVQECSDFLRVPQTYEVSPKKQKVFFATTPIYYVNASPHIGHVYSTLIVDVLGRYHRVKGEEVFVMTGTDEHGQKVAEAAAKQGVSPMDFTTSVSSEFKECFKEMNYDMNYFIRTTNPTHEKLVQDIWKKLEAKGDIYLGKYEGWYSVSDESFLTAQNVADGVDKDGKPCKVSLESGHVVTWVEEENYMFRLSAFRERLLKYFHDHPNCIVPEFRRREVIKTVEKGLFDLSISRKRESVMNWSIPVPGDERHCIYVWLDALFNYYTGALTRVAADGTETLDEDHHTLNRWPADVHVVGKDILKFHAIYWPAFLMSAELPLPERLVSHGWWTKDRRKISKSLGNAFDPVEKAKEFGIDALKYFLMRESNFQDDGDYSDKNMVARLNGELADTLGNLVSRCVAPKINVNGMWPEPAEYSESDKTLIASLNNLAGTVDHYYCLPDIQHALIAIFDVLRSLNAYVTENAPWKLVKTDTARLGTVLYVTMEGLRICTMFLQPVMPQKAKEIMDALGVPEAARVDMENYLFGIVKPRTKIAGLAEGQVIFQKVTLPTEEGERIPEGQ

Data taken from ChEMBL document CHEMBL3988442, “University of Dundee, Small-Polar-MMV Screening Library” (2021).

All values are in %.
The controls that fix the scale are not given in the record; negative values are as filed.
Compounds were drawn at random from those tested, without regard to their results.

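Primary screen of methionyl-tRNA synthetase; the read-out is not stated. Target: Methionyl-tRNA synthetase (putative), Leishmania donovani (UniProt E9BF75). The test concentration is not given. Values are per cent inhibition. About 68,000 compounds were tested under these conditions; 0.035% (about 24) showed 50% or more at least once.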

| # | compound | Inhibition |
|---|---|---|
| 1 | `O=C(Nc1cccnc1)C1CCN(c2cc(-n3ccnc3)ncn2)CC1` | 11.51 |
| 2 | `CC(=O)N(c1ccc(C)cc1)c1nc(CN2CCCC(C)C2)cs1` (stereo not drawn) | 18.75 |
| 3 | `CCNC(=O)C(C)Oc1ccc(N(C)S(C)(=O)=O)cc1` (stereo not drawn) | 11.72 |
| 4 | `C[C@@H]1CN(CCC(=O)N(C)Cc2ccccc2)C[C@@]1(O)C1CCC1` | 9.045 |
| 5 | `Cn1cc(C2COC3(CCN(C(=O)c4ccc(F)cc4)CC3)C2)cn1` (stereo not drawn) | 13.8 |
| 6 | `Cc1cc(C(=O)N2CCCC2c2nnc3n2CCCCC3)no1` (stereo not drawn) | 15.93 |
| 7 | `Cc1c(CN2CCC(C(=O)O)(n3cccn3)CC2)oc2ccccc12` | 3.361 |
| 8 | `Cc1c(F)cccc1S(=O)(=O)NCC(C)(C)CC(C)O` (stereo not drawn) | 17.29 |
| 9 | `COCCO[C@H]1CCN(C(=O)c2ccsc2)[C@H]1Cc1cnn(C)c1` | 8.458 |
| 10 | `O=C(C1SCCc2sccc21)N1CCN(C2CC2)C(=O)C1` (stereo not drawn) | 9.341 |
| 11 | `CC(=O)N1CCCC1c1cccc(Cc2ccccc2Cl)n1` (stereo not drawn) | 12.43 |
| 12 | `CO[C@@H]1CN(c2ccccc2)S(=O)(=O)[C@@]12CCN(Cc1cncs1)C2` | 4.11 |
| 13 | `COc1ccc(C)cc1-c1csc(Cn2ccc(=O)[nH]c2=O)n1` | 4.188 |
| 14 | `Cn1nnnc1SC1CCCN(c2ccccc2Cl)C1=O` (stereo not drawn) | 14.21 |
| 15 | `NS(=O)(=O)CCNC(=O)c1cc2ccccc2nc1N1CCCC1` | 27.69 |
| 16 | `CN(Cc1cnn(C)c1)C(=O)NC1CCC(O)CC1` (stereo not drawn) | 11.5 |
| 17 | `O=C([C@H]1C[C@@H]2CCN(c3cccc(F)c3)C[C@H]2O1)N1CCCCO1` | 6.849 |
| 18 | `CCC(CO)N(Cc1ccco1)C(=O)c1cccc(C)c1O` (stereo not drawn) | 10.67 |
| 19 | `CCN(CC)CC1CN(Cc2ccc(C)s2)Cc2nccn2C1` (stereo not drawn) | 13.53 |
| 20 | `CCc1nc(CNc2ccc(C(=O)NCc3ccco3)cc2C)no1` | 13.98 |
| 21 | `CC(C)(C)NC(=O)CN1CCCN(Cc2cc(C#N)ccc2F)CC1` | 6.747 |
| 22 | `COc1cccc2c1OCCCN(c1nc3c(c(=O)[nH]1)CCNCC3)C2` | 15.81 |
| 23 | `O=C(C[C@@H]1COC[C@H]2CN(C(=O)c3cccnc3)C[C@@H]12)N1CCOCC1` | 14.11 |
| 24 | `Cc1cccc(CSc2ncc(Br)c(C(=O)O)n2)c1` | 8.401 |
| 25 | `CCN(CC)[C@@H]1CN(Cc2nccn2C)[C@@H]2CCCO[C@H]12` | 7.317 |
| 26 | `COCC1c2c(cnn2CC2CC2)CCN1Cc1ccc(OC)cc1` (stereo not drawn) | 10.46 |
| 27 | `O=C(Nc1ccc(S(=O)(=O)Nc2ccccc2)cc1)N1CCCC1` | 4.668 |
| 28 | `COc1ccc(CCC(=O)N(C)CCN2CCOCC2)cc1OC` | 3.133 |
| 29 | `O=C(CCCOCc1ccccc1)N1CCCC(n2cncn2)C1` (stereo not drawn) | 16.87 |
| 30 | `CCN(Cc1ccncc1)c1cc(C2CCN2C(C)=O)nc(C)n1` (stereo not drawn) | 21.81 |
| 31 | `Cn1cnc2c1C(COCC1CC1)CN(c1ncccn1)C2` (stereo not drawn) | 8.122 |
| 32 | `COc1ccc(CN(C)[C@@H]2CN(C(=O)c3ccccc3)C[C@H]2O)cc1` | 22.4 |
| 33 | `CCc1ccc(S(=O)(=O)NCC2CCN(c3cnccn3)CC2)s1` | 13.02 |
| 34 | `CCC(=O)Nc1ncn(Cc2cccnc2)n1` | 12.24 |
| 35 | `CC(C)(C)S(=O)(=O)c1ccc(N2CCC(n3ccnc3)CC2)cn1` | 15.22 |
| 36 | `Cc1ccccc1C(=O)NC1CCN(c2cnn(C)c2)C1=O` (stereo not drawn) | 12.1 |
| 37 | `CNC(=O)CN1CCO[C@H]2CN(C(=O)C3CC3)C[C@H]21` | 9.774 |
| 38 | `CC(NC(=O)CCC(=O)c1cccs1)c1nnc2n1CCCCC2` (stereo not drawn) | 9.206 |
| 39 | `Cn1cc(CN2CCC[C@]3(C[C@H](Oc4ncccc4F)CO3)C2)cn1` | 16.48 |
| 40 | `Cc1oc(C(C)C)cc1C(=O)N1C[C@H]2CC[C@@H]1CN(C(=O)N(C)C)C2` | 8.591 |
| 41 | `CCCC(=O)N1CCOC2(COCCN(CC(=O)NC)C2)C1` (stereo not drawn) | 15.85 |
| 42 | `O=C(c1ccncc1)N1CCCC(C2=Nc3ccccc3S(=O)(=O)N2)C1` (stereo not drawn) | 14.53 |
| 43 | `CN(C)CCn1ccnc1C1CCCN(c2cc(N)ncn2)C1` (stereo not drawn) | 4.632 |
| 44 | `COCCN(C)C[C@@H]1CN(C(=O)c2ccc(O)c(C)c2)C[C@@H]1CO` | 18.03 |
| 45 | `CNc1cc(C2CCCN2C(=O)CCc2cnn(C)c2C)ccn1` (stereo not drawn) | 8.924 |
| 46 | `CN1CC2(CCNCC2)COc2ccccc2S1(=O)=O` | 0.8646 |
| 47 | `CN1CCCC(CCC(=O)N2CCc3[nH]c(-c4ccccc4)nc3C2)C1` (stereo not drawn) | 10 |
| 48 | `Cc1ccc(C(=O)N2CCc3ncc(Cn4cccn4)n3CC2)cn1` | 13.97 |
| 49 | `CCN(CCOC)C(=O)CCc1scnc1C` | 12.32 |
| 50 | `COCC1CN(c2ccc(C#N)c(Cl)c2)CCO1` (stereo not drawn) | 6.522 |
| 51 | `COc1ccccc1CC1CCCN(CCC(N)=O)C1` (stereo not drawn) | 11.34 |
| 52 | `CCN1CCN(c2ccc(C(=O)NC(C)C(=O)N(C)C)cc2)CC1` (stereo not drawn) | 15.81 |
| 53 | `Cc1nnc(C(C)N2CCN(Cc3ccc4c(c3)OCO4)CC2)o1` (stereo not drawn) | 1.961 |
| 54 | `COc1ccccc1CCNC(=O)NCC(=O)Nc1cccnc1` | -3.432 |
| 55 | `CC1CCN(c2ccc(C(=O)N3CCCC3c3ccc[nH]3)cn2)CC1` (stereo not drawn) | 78.49 |
| 56 | `CC(Nc1ncnc2c1NC(=O)CN2)c1ccc2c(c1)OCO2` (stereo not drawn) | 5.382 |
| 57 | `O=C1CN(C(=O)c2ccc(Cl)cc2)CC(O)CN1Cc1cccs1` (stereo not drawn) | 5.753 |
| 58 | `COCCNc1ccccc1CNC(=O)NCc1cnc(C)s1` | -0.3497 |
| 59 | `COc1ccc(C(C)NC(=O)NCCCn2cncn2)cc1F` (stereo not drawn) | 19.58 |
| 60 | `Cc1ccc(C(=O)N2CCN(C(=O)Nc3ccccn3)CC2)o1` | -5.556 |
| 61 | `CC(=O)c1cc(Br)cc(F)c1OCC(=O)NC1CC1` | 20.25 |
| 62 | `CCOCc1nc2c(c(NC(CC)c3cccnc3)n1)CCNCC2` (stereo not drawn) | 12.45 |
| 63 | `O=C(CN1CCCc2c(F)cc(Br)cc21)N1CCCC1` | 2.062 |
| 64 | `O=C1NCCCc2[nH]c(Cc3ccc(F)cc3)nc21` | 7.971 |
| 65 | `O=C1NC[C@H]2CN(Cc3nccs3)CCN12` | 6.84 |
| 66 | `Cc1cnc(C(=O)N2C[C@H]3CCCC(OCc4cccnc4)[C@H]3C2)cn1` (stereo partly drawn) | 3.704 |
| 67 | `Cc1cc(N2CCCC2c2cnccn2)ncn1` (stereo not drawn) | 12.67 |
| 68 | `O=S(=O)(NCCn1ccc(-c2cccs2)n1)C1CC1` | 6.211 |
| 69 | `Cc1ccc(CSc2nc(N)cc(NCCS(=O)(=O)N(C)C)n2)cc1` | 16.43 |
| 70 | `O=C(c1ccco1)N1C[C@H]2CCCN(C(=O)c3ccsc3)[C@H]2C1` | 7.778 |
| 71 | `Cn1cc(CN2CCCC(c3nc(O)cc(-c4cccs4)n3)C2)cn1` (stereo not drawn) | 7.595 |
| 72 | `CC(Cn1cccn1)NC(=O)N1CCN(Cc2ccco2)CC1` (stereo not drawn) | 16.87 |

The first 6 entries again:

| compound | Inhibition |
|---|---|
| `O=C(Nc1cccnc1)C1CCN(c2cc(-n3ccnc3)ncn2)CC1` | 11.51 |
| `CC(=O)N(c1ccc(C)cc1)c1nc(CN2CCCC(C)C2)cs1` (stereo not drawn) | 18.75 |
| `CCNC(=O)C(C)Oc1ccc(N(C)S(C)(=O)=O)cc1` (stereo not drawn) | 11.72 |
| `C[C@@H]1CN(CCC(=O)N(C)Cc2ccccc2)C[C@@]1(O)C1CCC1` | 9.045 |
| `Cn1cc(C2COC3(CCN(C(=O)c4ccc(F)cc4)CC3)C2)cn1` (stereo not drawn) | 13.8 |
| `Cc1cc(C(=O)N2CCCC2c2nnc3n2CCCCC3)no1` (stereo not drawn) | 15.93 |